Source: publication PMC12040169 (PLOS Biology, 2025)
The list shows a part of the results.

What follows are molecules tested on T1, CTL2-GFP (C. trachomatis L2/434/Bu, GFP-expressing). Conditions: bulk GFP, single well; 28.5 h, 10 µM; inhibitor.
T1 construct: L2/434/Bu, GFP-expressing
Set-up: species or system HeLa; Intracellular C. trachomatis growth in HeLa cells, bulk GFP fluorescence relative to DMSO

Structure (SMILES)	% of control remaining
Cc1ccc(CNC(=O)c2nnc(C(=O)Nc3cccc(Cl)c3)s2)o1 [CBK294404]	128.708%
O=C(/C=C/c1cn(-c2ccccc2)nc1-c1cccnc1)c1ccc(-c2ccccc2)cc1 [CBK263213]	130.338%
C=CCn1ncc(CN(CCN(C)C)Cc2ccc(C)o2)c1C [CBK282846]	121.88%
COc1ccc(C(C)(C)C)cc1S(=O)(=O)NC1CC(C)(C)NC(C)(C)C1 [CBK267865]	140.012%
O=C(COc1ccccc1[N+](=O)[O-])Nc1ccc(Br)cc1C(=O)O [CBK266008]	178.847%
Clc1ccc(COc2nccnc2OC2CCN(Cc3ccncc3)CC2)cc1Cl [CBK153792]	69.2419%
COC(=O)CC[C@H]1CNC(=O)[C@@H]2[C@@H](CCN2C)N1C [CBK289020]	151.041%
O=C1C(NCCO)=C(Nc2cccc(Cl)c2)C(=O)c2ccccc21 [CBK264323]	34.5586%
N#C/C(=C\c1ccc(N2CCOCC2)cc1)c1nc2ncc(Br)cc2[nH]1 [CBK266294]	100%
Cc1nc(C)c(CCC(=O)NC2CCCc3ccccc32)c(=O)[nH]1 (stereo not shown) [CBK295600]	116.669%
CC(C)(C)OC(=O)N1CCN(c2nccnc2Cl)CC1 [CBK013554]	103.699%
Clc1cc(Cl)c2[nH]c3c(c2c1)CCc1nonc1-3 [CBK025929]	107.436%
CS(=O)(=O)Nc1ccc(C(=O)Nc2ccc(S(=O)(=O)N3CCOCC3)cc2)cc1 [CBK268379]	78.1318%
CC(C)N1CCC[C@@H]2CN(C(=O)c3cccc(C(F)(F)F)c3)C[C@@H]21 [CBK285525]	113.111%
CC1CN(C(=O)Nc2ccccc2F)CC(C)O1 (stereo not shown) [CBK004990]	125.161%
Cc1ccc(C2(C)CC(C)(C)N(C(=O)CSc3nnc[nH]3)c3ccccc32)cc1 (stereo not shown) [CBK073918]	40.2071%
COc1ccc(Cc2c(C)nc3c(C(=O)NCC4COc5ccccc5O4)cnn3c2C)cc1 (stereo not shown) [CBK162179]	121.163%
N#Cc1ccc(-c2cnc(N)c(-c3ccc(C(=O)N4CCOCC4)cc3)n2)cc1 [CBK064067T]	77.6886%
NC(=O)C1(N2CCCCC2)CCN(C2CC(=O)N(Cc3ccc(N4CCCC4=O)cc3)C2=O)CC1 (stereo not shown) [CBK266598]	152.553%
COc1ccccc1NC(CC(=O)c1ccccc1)C(=O)O (stereo not shown) [CBK287190]	134.538%
O=C(NC1CCC1)c1cn2cc(-c3cccs3)n(CC3CC3)c(=O)c2n1 [CBK306863]	154.739%
O=C(Nc1ccc(C(F)(F)F)cc1)C1=C(O)CN(c2ccc(Cl)cc2)C1=O [CBK017603]	102.737%
O=C1CSC2c3ccccc3C(=O)N2c2ccccc21 (stereo not shown) [CBK113670]	102.181%
COc1ccccc1-c1ccc(C(=O)N(C)CCN(C)C)c(N(C)C)n1 [CBK106075]	130.996%
CC(C)(CO)Cn1c(=O)[nH]c2ncc(-c3ccco3)nc21 [CBK064721]	126.244%
CN(C)CCCNC(=O)C1CCN(c2nc3c(-c4ccccc4F)csc3c(=O)[nH]2)CC1 [CBK215438]	128.602%

Structure (SMILES)	% of control remaining
O=C(NC1CCCOC1)c1cnn(-c2ccc(F)cc2)c1 (stereo not shown) [CBK283248]	126.837%
c1csc(-c2nccnc2OCC2COc3ccccc3O2)c1 (stereo not shown) [CBK107063]	100.013%
CC1c2ccsc2CCN1C(=O)CC(NC(N)=O)c1cccc(Br)c1 (stereo not shown) [CBK305635]	110.358%
Nc1cccc(-c2nc(NC(=O)Cc3ccccc3)cnc2-c2ccc(F)cc2)c1 [CBK037550]	168.475%
COC(=O)[C@H]1CN(C(=O)C2CC(=O)N(C)C2)C[C@@H]1c1ccc(F)cc1 (stereo partly shown) [CBK283521]	108.341%
Cc1nc(S)nc(O)c1Cc1ccc(C(=O)O)o1 [CBK266284]	110.501%
COc1ccc(NC(=O)C(C)n2nc(C(=O)O)c3ccccc3c2=O)cc1 (stereo not shown) [CBK295322]	114.281%
Cc1ccccc1C(=O)Nc1cccc(-c2nnc(SCC(=O)c3ccc(Cl)cc3)n2C)c1 [CBK264053]	100%
N#Cc1ccnc(N2CCN(CC(=O)NCC(F)(F)F)CC2)c1 [CBK305042]	110.327%
N#C/C(=C\c1ccc(-c2ccc(C(=O)O)cc2)o1)C(=O)NCc1ccco1 [CBK263322]	100%
Cc1cc(CC(=O)NCCCn2ccnc2C(C)C)on1 [CBK307270]	134.781%
CC(=O)Nc1cccc(C(=O)O)c1Cl [CBK038814]	145.238%
O=C(NC[C@H]1C[C@@H]2CC[N@]1C[C@@H]2CN1CCN(c2ncccn2)CC1)Nc1ccsc1 [CBK289117]	104.306%
CC(NC(=O)N1CCCN(Cc2ccccn2)CC1)c1cnn(C)c1 (stereo not shown) [CBK307537]	99.281%
O=C(CSCc1c(F)cccc1Cl)Nc1ccc(S(=O)(=O)N2CCCCCC2)cc1 [CBK268497]	97.1677%
CCCCN(C)c1nccnc1-c1cccc(O)c1 [CBK037652]	103.862%
CC1Cc2cc(C(=O)N3CCCCC3CCN3CCCC3)ccc2O1 (stereo not shown) [CBK282094]	124.54%
OCCN1CC2(CCN(Cc3ccc4ccccc4c3)CC2)c2ccccc21 [CBK131529]	138.326%
CSc1ccc(-c2cnc(N)c3ncccc23)cc1 [CBK067584]	118.255%
Nc1ncccc1OCCOc1cccnc1N [CBK022067]	136.672%
O=C1CC(N2CCN(Cc3ccc4c(c3)OCO4)CC2)C(=O)N1c1ccc(Cl)cc1 (stereo not shown) [CBK074402]	121.318%
C[C@]12CN(CCc3ccccc3)C[C@H]1NC(=O)c1ccccc1C2=O [CBK284704]	147.343%
C[C@@H](Nc1cncc(-c2cccc(N)c2)n1)c1ccccc1 [CBK065273]	180.694%
O=C(NC1CC1)C1(Cc2ccccc2-c2ccncc2)CCOCC1 [CBK284785]	108.312%
COc1ccc2oc(C(=O)N(C)CC(C)OC)c(C)c2c1 (stereo not shown) [CBK282037]	130.256%
O=C(C1CCN(S(=O)(=O)c2ccccc2)CC1)N1CCN(Cc2ccc3c(c2)OCO3)CC1 [CBK265713]	198.797%

Structure (SMILES)	% of control remaining
CC(=O)Nc1ccc(NCc2nc(CC(C)C)no2)c(C(F)(F)F)c1 [CBK305799]	89.814%
COc1ccc(NC2=N[C@H]3[C@@H](O)[C@H](O)C[C@H](C(=O)N(C)Cc4ccccc4)[C@H]3S2)cc1 [CBK288950]	87.9999%
CC(CN(C)C(=O)c1nc(=O)[nH][nH]1)Oc1ccc(Cl)c(Cl)c1 (stereo not shown) [CBK306471]	100.974%
COc1cccc(-n2c(C)nnc2C2(OC(C)=O)CCN(CCc3ccccc3)CC2)c1 [CBK016371]	93.4497%
O=C(CN1CCn2ccnc2C1)N(Cc1ccccc1F)C1CC1 [CBK303995]	103.112%
Cc1ccc(C(=O)N/C(=C\c2cccc([N+](=O)[O-])c2)c2n[nH]c(=S)[nH]2)cc1 [CBK263114]	116.201%
O=C(CCN1CCCC12CCc1[nH]c3ccccc3c1C2)c1ccc(F)cc1 (stereo not shown) [CBK084593]	90.6548%
CCOC(=O)CCC(=O)n1c2ccccc2c2ccccc21 [CBK001170]	121.788%
CC(=O)NCCN1CC[C@H]2CN(C(=O)COc3ccccc3)CC[C@H]2CC1=O [CBK288783]	129.984%
COc1cc(NC(=S)NCc2ccc(S(N)(=O)=O)cc2)cc(OC)c1 [CBK264935]	119.805%
COc1ccc(CC(=O)N2CCC(c3cc4ncccc4[nH]3)CC2)cc1 [CBK283386]	124.637%
CC(C)(C)c1cc(-n2c(-c3cccnc3)nc3ccccc32)cc(C(C)(C)C)c1O [CBK262907]	83.2742%
Cc1nc(NS(=O)(=O)c2ccccc2)sc1NC(=O)Nn1cnnc1 [CBK266699]	167.783%
CN(C)CCN(Cc1ccccc1)Cc1ccc(C(F)(F)F)cc1 [CBK261927]	97.3034%
O=S(=O)(c1ccc(-c2ccccc2)cc1)n1ccc2cc(N3CCN(Cc4ccccc4)CC3)ccc21 [CBK001388C]	81.101%
CC(=O)N1Cc2cc(C)ccc2OC2(CCCN(CC3CC3)C2)C1 (stereo not shown) [CBK285104]	112.679%
CCOc1ccc(CC(=O)N2CCCc3c(cnn3C)C2)cc1 [CBK285325]	130.413%
CCc1nc2ccc(C(=O)NC3CCN(Cc4ccccc4)CC3)cn2c1N(C)CC [CBK145488]	95.6277%
Cc1ccc(CN(C2CCN(C)CC2)S(=O)(=O)c2ccccc2F)cc1 [CBK160444T]	144.43%
O=c1[nH]c(/C=C\c2cccc(OCCOc3ccccc3)c2)c([N+](=O)[O-])c(=O)[nH]1 [CBK266840]	103.088%
CN1CCN(CCOC(=O)NCc2ccnc3ccccc23)CC1 [CBK200148]	96.5687%
Cn1cc(C2CCCCCN2S(=O)(=O)c2ccc3[nH]c(=O)[nH]c(=O)c3c2)cn1 (stereo not shown) [CBK286406]	118.406%
O=C(NCc1ccncc1)c1cc(-c2ccc(Cl)cc2)on1 [CBK116559]	117.331%
Cc1ccc(NC(=O)N(Cc2ccc(-c3ccccc3)cc2)CC(C)(C)CN)c(C)c1 [CBK002428C]	63.476%

Structures from the list above that have a tert-butyl group, in the order listed:
Structure (SMILES)	% of control remaining
COc1ccc(C(C)(C)C)cc1S(=O)(=O)NC1CC(C)(C)NC(C)(C)C1 [CBK267865]	140.012%
CC(C)(C)OC(=O)N1CCN(c2nccnc2Cl)CC1 [CBK013554]	103.699%
CC(C)(C)c1cc(-n2c(-c3cccnc3)nc3ccccc32)cc(C(C)(C)C)c1O [CBK262907]	83.2742%
